Results taken from the supplement of paper PMC9744312.
Where a name gives a salt, the structure may show the parent alone. This is one part of the list. The data scatter; read single values as rough.

What follows are molecules tested on Peyronie's disease tunica albuginea primary fibroblasts (assay: cell viability (DRAQ5 nuclear stain) relative to TGF-beta1-only control; higher = more viable cells). Settings: 10 µM; TGF-beta1 10 ng/mL; 72 h.

Which cell viability does the source give for `C[C@]12C=CC(=O)C=C1CC[C@@H]1[C@@H]2[C@@H](O)C[C@@]2(C)[C@H]1CC[C@]2(O)C(=O)CO` [Prednisolone] here?
The cell viability was 80.4%.

With `NS(=O)(=O)c1cc2c(cc1Cl)N=C(CSCc1ccccc1)NS2(=O)=O` [Benzthiazide] as the molecule, how does the cell viability read?
Its cell viability is 111%.

Which cell viability does the source give for `CC(=O)OC/C=C(C)/C=C/C=C(C)/C=C/C1=C(C)CCCC1(C)C` [Vitamin A Acetate] here?
Its cell viability is 91%.

For `CCCCCCCCCCCCCCCCCC(=O)O` [Stearic acid], which cell viability is on record?
The cell viability was 115%.

With `CO[C@@]1(NC(=O)C(C(=O)O)c2ccc(O)cc2)C(=O)N2C(C(=O)O)=C(CSc3nnnn3C)CO[C@@H]21` (some centres undefined) [Latamoxef sodium] as the molecule, how does the cell viability read?
Its cell viability is 52.9%.

With `C=CCc1cc(OC)c(O)c(C(=O)NCCO)c1` [Alibendol] as the molecule, how does the cell viability read?
Its cell viability is 80.8%.

`C#C[C@]1(O)CC[C@H]2[C@@H]3CCC4=CC(=O)CC[C@@H]4[C@H]3CC[C@@]21C` [Norethindrone] was tested. Which cell viability did it give?
The cell viability was 94.6%.

For `C#C[C@]1(OC(C)=O)CC[C@H]2[C@@H]3CCC4=C[C@@H](OC(C)=O)CC[C@@H]4[C@H]3CC[C@@]21C` [Ethynodiol diacetate], which cell viability is on record?
Its cell viability is 103%.

For `Nc1ccc(S(=O)(=O)Nc2ncccn2)cc1` [Sulfadiazine], which cell viability is on record?
The cell viability was 92%.

Which cell viability does the source give for `Nc1ccc(S(=O)(=O)Nc2ncccn2)cc1` [Sodium sulfadiazine] here?
Its cell viability is 82.6%.

For `Nc1ccc(O)c(C(=O)O)c1` [Mesalamine], which cell viability is on record?
The cell viability was 92%.

`CN(C)CCCN1c2ccccc2CCc2ccc(Cl)cc21` [Clomipramine HCl] was tested. Which cell viability did it give?
The cell viability was 80.3%.

How did the cell viability turn out when `Cc1cc(NC(=O)C2=C(O)c3ccccc3S(=O)(=O)N2C)no1` [Isoxicam] was run?
Its cell viability is 88.3%.

`CCCCCCCC(=O)N[C@H](CN1CCCC1)[C@H](O)c1ccc2c(c1)OCCO2` [Eliglustat] was tested. Which cell viability did it give?
Its cell viability is 84.9%.

With `CC(C)NC[C@H](O)COc1ccc(CCOCC2CC2)cc1` [Levobetaxolol HCl] as the molecule, how does the cell viability read?
Its cell viability is 97.5%.

Which cell viability does the source give for `C1=N/C2=N/c3ccc(OCCN4CCCC4)c(c3)COC/C=C/COCc3cccc(c3)C(=C1)N2` [Pacritinib (SB1518)] here?
Its cell viability is 40.7%.

For `COc1ccc2cccc(CCNC(C)=O)c2c1` [Agomelatine], which cell viability is on record?
Its cell viability is 89.9%.

For `CC(C)NCC(O)c1ccc(NS(C)(=O)=O)cc1` (centres undefined) [Sotalol HCl], which cell viability is on record?
The cell viability was 87.7%.

With `C#C[C@]1(O)CC[C@H]2[C@@H]3CCc4cc(OC)ccc4[C@H]3CC[C@@]21C` [Mestranol] as the molecule, how does the cell viability read?
The cell viability was 89.2%.

Which cell viability does the source give for `N=C(N)NCCC[C@@H](NC(=O)[C@@H]1CCCN1C(=O)[C@@H]1CSSCCC(=O)N[C@@H](Cc2ccc(O)cc2)C(=O)N[C@@H](Cc2ccccc2)C(=O)N[C@@H](CCC(N)=O)C(=O)N[C@@H](CC(N)=O)C(=O)N1)C(=O)NCC(N)=O` [Desmopressin Acetate] here?
The cell viability was 99.2%.

How did the cell viability turn out when `CC(=O)N1CCN(c2ccc(OCC3COC(Cn4ccnc4)(c4ccc(Cl)cc4Cl)O3)cc2)CC1` (centres undefined) [Ketoconazole] was run?
Its cell viability is 96.2%.

How did the cell viability turn out when `Cc1[nH]c(/C=C2\C(=O)Nc3ccccc32)c(C)c1CCC(=O)O` [Orantinib (TSU-68, SU6668)] was run?
The cell viability was 81.9%.

With `Cc1nc(C)c(Cl)c(O)c1Cl` [Clopidol] as the molecule, how does the cell viability read?
Its cell viability is 93.3%.

Which cell viability does the source give for `O=C(O)P(=O)(O)O` [Foscarnet Sodium] here?
The cell viability was 83.4%.

For `NS(=O)(=O)c1ccc(C(=O)O)cc1` [Carzenide], which cell viability is on record?
The cell viability was 79.4%.

With `CO[C@H]1C[C@@H]2CC[C@@H](C)[C@@](O)(O2)C(=O)C(=O)N2CCCC[C@H]2C(=O)O[C@H]([C@H](C)C[C@@H]2CC[C@@H](O)[C@H](OC)C2)CC(=O)[C@H](C)/C=C(\C)[C@@H](O)[C@@H](OC)C(=O)[C@H](C)C[C@H](C)/C=C/C=C/C=C/1C` [Rapamycin (Sirolimus)] as the molecule, how does the cell viability read?
Its cell viability is 74.5%.

`CCC(=O)NS(=O)(=O)c1ccc(-c2c(-c3ccccc3)noc2C)cc1` [Parecoxib] was tested. Which cell viability did it give?
The cell viability was 87.5%.

`CCC(=O)NS(=O)(=O)c1ccc(-c2c(-c3ccccc3)noc2C)cc1` [Parecoxib Sodium] was tested. Which cell viability did it give?
The cell viability was 110%.

For `CNC[C@H](O)c1cccc(O)c1` [Phenylephrine HCl], which cell viability is on record?
Its cell viability is 96.4%.

For `N[C@@H]1CN(c2c(F)cc3c(=O)c(C(=O)O)cn([C@@H]4C[C@@H]4F)c3c2Cl)CC12CC2` [Sitafloxacin Hydrate], which cell viability is on record?
Its cell viability is 91.8%.

How did the cell viability turn out when `COC(=O)c1ccc2c(c1)NC(=O)/C2=C(\Nc1ccc(N(C)C(=O)CN2CCN(C)CC2)cc1)c1ccccc1` [Nintedanib (BIBF 1120)] was run?
The cell viability was 76.9%.

How did the cell viability turn out when `CC(C)(CO)[C@@H](O)C(=O)NCCCO` [D panthenol] was run?
Its cell viability is 96%.

How did the cell viability turn out when `CC(C)C[C@H](NC(=O)CNC(=O)c1cc(Cl)ccc1Cl)B(O)O` [Ixazomib (MLN2238)] was run?
The cell viability was 34.1%.

For `COC(=O)[C@H]1[C@H]2C[C@@H]3c4[nH]c5cc(OC)ccc5c4CCN3C[C@H]2C[C@@H](OC(=O)c2cc(OC)c(OC)c(OC)c2)[C@@H]1OC` [Reserpine], which cell viability is on record?
The cell viability was 84.3%.

How did the cell viability turn out when `O=c1c(-c2ccc(O)cc2)coc2cc(O)cc(O)c12` [Genistein] was run?
The cell viability was 80.1%.

For `N[C@H](Cc1ccccc1)C(=O)O` [D-Phenylalanine], which cell viability is on record?
The cell viability was 110%.

`CS(=O)(=O)Nc1cc2occ(NC=O)c(=O)c2cc1Oc1ccccc1` [Iguratimod] was tested. Which cell viability did it give?
Its cell viability is 103%.

For `CC(C)OC(=O)C(C(=O)OC(C)C)=C1SC=CS1` [Malotilate], which cell viability is on record?
Its cell viability is 90.6%.

With `c1ccc2c(c1)CCCC2C1=NCCN1` (centres undefined) [Tetrahydrozoline HCl] as the molecule, how does the cell viability read?
The cell viability was 90.6%.

With `COc1cccc(CCc2ccccc2OCC(CN(C)C)OC(=O)CCC(=O)O)c1` (centres undefined) [Sarpogrelate hydrochloride] as the molecule, how does the cell viability read?
Its cell viability is 79.4%.

How did the cell viability turn out when `C[C@@H](O)[C@H]1C(=O)N2C(C(=O)O)=C(SCCNC=N)C[C@H]12` [Imipenem] was run?
The cell viability was 81.9%.

For `N[C@@H](CS)C(=O)O` [L-Cysteine HCl], which cell viability is on record?
The cell viability was 81.3%.

`CCCCCN(C)CCC(O)(P(=O)(O)O)P(=O)(O)O` [Ibandronate sodium] was tested. Which cell viability did it give?
Its cell viability is 87.2%.

With `C[Se]CC[C@H](N)C(=O)O` [L-SelenoMethionine] as the molecule, how does the cell viability read?
The cell viability was 88.5%.

Which cell viability does the source give for `C1N2CN3CN1CN(C2)C3` [Methenamine] here?
Its cell viability is 95.3%.

How did the cell viability turn out when `CCCOC(C(=O)OC1CCN(C)CC1)(c1ccccc1)c1ccccc1` [Propiverine hydrochloride] was run?
The cell viability was 94.6%.

`CCOCCn1c(C2CCN(CCc3ccc(C(C)(C)C(=O)O)cc3)CC2)nc2ccccc21` [Bilastine] was tested. Which cell viability did it give?
Its cell viability is 94.2%.

Which cell viability does the source give for `C[C@@H](O)[C@H]1C(=O)N2C(C(=O)O)=C(S[C@@H]3CN[C@H](C(=O)Nc4cccc(C(=O)O)c4)C3)[C@H](C)[C@H]12` [Ertapenem sodium] here?
The cell viability was 95.1%.

`CCCCCOc1ccc(-c2ccc(-c3ccc(C(=O)N[C@H]4C[C@@H](O)[C@@H](O)NC(=O)[C@@H]5[C@@H](O)[C@@H](C)CN5C(=O)[C@H]([C@@H](C)O)NC(=O)[C@H]([C@H](O)[C@@H](O)c5ccc(O)cc5)NC(=O)[C@@H]5C[C@@H](O)CN5C(=O)[C@H]([C@@H](C)O)NC4=O)cc3)cc2)cc1` was tested. Which cell viability did it give?
The cell viability was 64.9%.

With `CC(C)c1nc(N(C)S(C)(=O)=O)nc(-c2ccc(F)cc2)c1/C=C/[C@@H](O)C[C@@H](O)CC(=O)O` [Rosuvastatin] as the molecule, how does the cell viability read?
Its cell viability is 79.9%.

`CC(C)c1nc(N(C)S(C)(=O)=O)nc(-c2ccc(F)cc2)c1/C=C/[C@@H](O)C[C@@H](O)CC(=O)O` [Rosuvastatin Calcium] was tested. Which cell viability did it give?
The cell viability was 85.3%.

With `Nc1ccc(S(=O)(=O)NC(=O)c2ccccc2)cc1` [Sulfabenzamide] as the molecule, how does the cell viability read?
The cell viability was 69.1%.

How did the cell viability turn out when `C[N+](C)(C)CCOP(=O)(O)OP(=O)([O-])OC[C@H]1O[C@@H](n2ccc(N)nc2=O)[C@H](O)[C@@H]1O` [Citicoline sodium] was run?
The cell viability was 84.1%.

With `CCN(CC)CCCC(C)Nc1ccnc2cc(Cl)ccc12` (centres undefined) [Chloroquine Phosphate] as the molecule, how does the cell viability read?
The cell viability was 99.6%.

For `CC(C)=CCOc1ccc(/C=C/C(=O)c2ccc(OCC=C(C)C)cc2OCC(=O)O)cc1` [Sofalcone], which cell viability is on record?
The cell viability was 87.3%.

With `Oc1ccc(C2CNCCc3c2cc(O)c(O)c3Cl)cc1` (centres undefined) [Fenoldopam mesylate] as the molecule, how does the cell viability read?
Its cell viability is 75%.

Which cell viability does the source give for `CC(C(=O)O)c1cccc(Oc2ccccc2)c1` (centres undefined) [Fenoprofen calcium hydrate] here?
Its cell viability is 87%.

`CC(C(=O)O)c1cccc(Oc2ccccc2)c1` (centres undefined) [Fenoprofen Calcium] was tested. Which cell viability did it give?
Its cell viability is 86.2%.

Which cell viability does the source give for `CCCc1ncc(C[n+]2ccccc2C)c(N)n1` [Amprolium HCl] here?
The cell viability was 98.6%.

How did the cell viability turn out when `CO/N=C(\C(=O)N[C@@H]1C(=O)N2C(C(=O)O)=CCS[C@H]12)c1csc(N)n1` [Ceftizoxime] was run?
The cell viability was 97.2%.

`OC[C@H]1OC(O)[C@H](O)[C@@H](O)[C@@H]1O` (some centres undefined) [Dextrose] was tested. Which cell viability did it give?
The cell viability was 91.4%.

`OC[C@@H](O)[C@@H](O)[C@H](O)[C@H](O)CO` [D-Mannitol] was tested. Which cell viability did it give?
Its cell viability is 95.2%.

For `CCn1cc(C(=O)O)c(=O)c2cc(F)c(N3CCNCC3)nc21` [Enoxacin Sesquihydrate], which cell viability is on record?
The cell viability was 101%.

Which cell viability does the source give for `CCn1cc(C(=O)O)c(=O)c2cc(F)c(N3CCNCC3)nc21` [Enoxacin] here?
The cell viability was 95.4%.

For `CC(=O)OCC(=O)NCCCOc1cccc(CN2CCCCC2)c1` [Roxatidine Acetate HCl], which cell viability is on record?
The cell viability was 98.2%.

How did the cell viability turn out when `C[C@H](NCc1ccc(OCc2cccc(F)c2)cc1)C(N)=O` [Safinamide Mesylate] was run?
The cell viability was 94.6%.

Which cell viability does the source give for `C[C@H](NCc1ccc(OCc2cccc(F)c2)cc1)C(N)=O` [Safinamide] here?
Its cell viability is 93.4%.

Which cell viability does the source give for `OCCN1CCN(CCCN2c3ccccc3Sc3ccc(C(F)(F)F)cc32)CC1` [Fluphenazine dihydrochloride] here?
The cell viability was 80%.

For `CC(C)(Oc1ccc(CCNC(=O)c2ccc(Cl)cc2)cc1)C(=O)O` [Bezafibrate], which cell viability is on record?
The cell viability was 97.5%.

Which cell viability does the source give for `c1ccc(CC2=NCCN2)cc1` [Tolazoline HCl] here?
Its cell viability is 95%.

Which cell viability does the source give for `Clc1ccc2c(c1)C(N1CCNCC1)=Nc1ccccc1O2` [Amoxapine] here?
Its cell viability is 93.6%.

With `O=C1c2ccccc2C(=O)C1c1ccccc1` [Phenindione] as the molecule, how does the cell viability read?
Its cell viability is 81.1%.

`O=C(Cn1ccnc1[N+](=O)[O-])NCc1ccccc1` [Benznidazole] was tested. Which cell viability did it give?
Its cell viability is 99.1%.

For `O=C(c1cc(Cc2n[nH]c(=O)c3ccccc23)ccc1F)N1CCN(C(=O)C2CC2)CC1`, which cell viability is on record?
The cell viability was 79.6%.
